Laboratory results as given in PubChem BioAssay AID2685 (National Center for Advancing Translational Sciences (NCATS), 2010).
This is one part of the list. These are further read-outs of the screen, such as a control signal, another cell line or another target. No call is given for them. Most of these compounds were active or inconclusive in the main read-out, so they are no random draw. The note in brackets gives the kind of curve behind each potency; many fits are weak.

Experiment: qHTS Assay for Lipid Storage Modulators in Drosophila S3 Cells;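 for cell number change: cells counted by Cell Tracker Red CMTPX staining in the red channel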
Conditions: BODIPY lipid droplet fluorescence, 18-24 h; for cell number change: measured here: cell count max response, cells fed with added oleic acid
How it was run: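 Drosophila S3 cells got compounds at several concentrations plus oleic acid (400 uM solution). Laser-scanning cytometry with 488 nm excitation read lipid droplets at 500-530 nm and cells at 575-640 nm. Percent activity was relative to 20 uM Triacsin C.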

[1] = measured here: lipid fluorescence (Fed channel) AC50, cells fed with added oleic acid
[2] = measured here: cell number channel AC50, cells fed with added oleic acid

Row | SMILES | cell number change | AC50 [1] | AC50 [2]
1 | COc1ccccc1OCc1nc(C#N)c(NCCCn2ccnc2)o1 | 9.45% | 29100 nM [rising, single point] | –
2 | O=C(/C=C/Nc1ccc(F)cc1)c1ccc(Br)cc1 | 19.2% | – | –
3 | CCOC(=O)c1cnc(SCc2nc(N)nc(Nc3ccc(F)cc3)n2)nc1N | 18.5% | – | –
4 | CC(C)(C)CC(=O)NC(=S)NCCc1ccccc1 | 39.3% | 3660 nM [falling, single point] | –
5 | CC(C)Nc1nnc(SCC(=O)Nc2ccc(F)cc2)s1 | 2.14% | – | –
6 | COc1ccc(S(=O)(=O)N2CCCC2C(=O)Nc2ccc(C)cc2)cc1 (centres undefined) | 33.2% | 2910 nM [rising, partial curve] | 1460 nM [rising, partial curve]
7 | O=C(c1cccc(Oc2ccc([N+](=O)[O-])cc2Cl)c1)N1CCOCC1 | -11.3% | 1640 nM [rising, partial curve, poor fit] | –
8 | COc1ccc(C2NC(=O)C(=O)/C2=C(\O)c2ccc(Cl)cc2)cc1OC (centres undefined) | 14.8% | 6510 nM [rising, full curve, poor fit] | –
9 | O=c1c2cccnc2[nH]c(=S)n1CCC1=CCCCC1 | -2% | 32600 nM [falling, single point] | –
10 | O=C(COc1ccccc1)N=C1SC2CS(=O)(=O)CC2N1c1ccc(F)cc1F (centres undefined) | 20.2% | 517 nM [rising, full curve, poor fit] | –
11 | COc1ccc(CC(O)CC2c3c(cc4c(c3OC)OCO4)CCN2C)cc1 (centres undefined) | – | 5170 nM [rising, partial curve] | –
12 | O=C(Nc1ccc(F)cc1)Nc1cc(OCC(F)(F)F)cc(OCC(F)(F)F)c1 | -29.8% | – | –
13 | Cc1ccc(NC(=O)NNC(=O)CN2C(=O)COc3ccccc32)cc1 | 6.52% | – | –
14 | COCCn1c(SCC(=O)NC2CC2)nnc1-c1ccco1 | 30.2% | 2590 nM [rising, full curve, poor fit] | –
15 | O=C(Nc1sc2c(c1C(=O)O)CCCC2)c1ccc(Cl)cc1 | 17.5% | 29100 nM [rising, single point] | –
16 | Cc1cc(C)c(S(=O)(=O)C(C)C)c(=O)[nH]1 | -4.75% | – | –
17 | CCOCCCn1c(SCC(=O)N(C)C2CCS(=O)(=O)C2)nc2ccccc2c1=O (centres undefined) | – | 6510 nM [rising, partial curve, poor fit] | 6510 nM [falling, single point]
18 | Cc1c(N=Cc2ccc(Cl)o2)c(=O)n(-c2ccccc2)n1C | -15.3% | – | 4.61 nM [falling, full curve, poor fit]
19 | CCOC(=O)c1ccc(NC(=O)N2CCc3ccccc3C2)cc1 | 17.9% | – | –
20 | CC(C)CN(C(=O)c1cccc(Cl)c1)c1c(N)n(CC(C)C)c(=O)[nH]c1=O | 22.1% | 103 nM [rising, single point] | –

A different layout for part of the listing above.

| Row | SMILES | cell number change | AC50 [1] | AC50 [2] |
| --- | --- | --- | --- | --- |
| 1 | COc1ccccc1OCc1nc(C#N)c(NCCCn2ccnc2)o1 | 9.45% | 29100 nM [rising, single point] | – |
| 2 | O=C(/C=C/Nc1ccc(F)cc1)c1ccc(Br)cc1 | 19.2% | – | – |
| 3 | CCOC(=O)c1cnc(SCc2nc(N)nc(Nc3ccc(F)cc3)n2)nc1N | 18.5% | – | – |
| 4 | CC(C)(C)CC(=O)NC(=S)NCCc1ccccc1 | 39.3% | 3660 nM [falling, single point] | – |
| 5 | CC(C)Nc1nnc(SCC(=O)Nc2ccc(F)cc2)s1 | 2.14% | – | – |
| 6 | COc1ccc(S(=O)(=O)N2CCCC2C(=O)Nc2ccc(C)cc2)cc1 (centres undefined) | 33.2% | 2910 nM [rising, partial curve] | 1460 nM [rising, partial curve] |
| 7 | O=C(c1cccc(Oc2ccc([N+](=O)[O-])cc2Cl)c1)N1CCOCC1 | -11.3% | 1640 nM [rising, partial curve, poor fit] | – |
| 8 | COc1ccc(C2NC(=O)C(=O)/C2=C(\O)c2ccc(Cl)cc2)cc1OC (centres undefined) | 14.8% | 6510 nM [rising, full curve, poor fit] | – |
| 9 | O=c1c2cccnc2[nH]c(=S)n1CCC1=CCCCC1 | -2% | 32600 nM [falling, single point] | – |
| 10 | O=C(COc1ccccc1)N=C1SC2CS(=O)(=O)CC2N1c1ccc(F)cc1F (centres undefined) | 20.2% | 517 nM [rising, full curve, poor fit] | – |
| 11 | COc1ccc(CC(O)CC2c3c(cc4c(c3OC)OCO4)CCN2C)cc1 (centres undefined) | – | 5170 nM [rising, partial curve] | – |
| 12 | O=C(Nc1ccc(F)cc1)Nc1cc(OCC(F)(F)F)cc(OCC(F)(F)F)c1 | -29.8% | – | – |
| 13 | Cc1ccc(NC(=O)NNC(=O)CN2C(=O)COc3ccccc32)cc1 | 6.52% | – | – |
| 14 | COCCn1c(SCC(=O)NC2CC2)nnc1-c1ccco1 | 30.2% | 2590 nM [rising, full curve, poor fit] | – |
| 15 | O=C(Nc1sc2c(c1C(=O)O)CCCC2)c1ccc(Cl)cc1 | 17.5% | 29100 nM [rising, single point] | – |
| 16 | Cc1cc(C)c(S(=O)(=O)C(C)C)c(=O)[nH]1 | -4.75% | – | – |
| 18 | Cc1c(N=Cc2ccc(Cl)o2)c(=O)n(-c2ccccc2)n1C | -15.3% | – | 4.61 nM [falling, full curve, poor fit] |
| 20 | CC(C)CN(C(=O)c1cccc(Cl)c1)c1c(N)n(CC(C)C)c(=O)[nH]c1=O | 22.1% | 103 nM [rising, single point] | – |

Going on with the list.

Row | SMILES | cell number change | AC50 [1] | AC50 [2]
21 | Cc1onc(-c2ccccc2Cl)c1C(=O)OCC(=O)c1ccccc1 | 6.03% | 29100 nM [falling, partial curve] | –
22 | CCN1CCN(c2nc3ccccc3nc2NS(=O)(=O)c2ccc(NC(C)=O)cc2)CC1 | 14.9% | – | –
23 | COC(=O)C1CC(=O)N(c2ccc(C)cc2)C1 (centres undefined) | -4.26% | 326 nM [falling, full curve] | 461 nM [falling, full curve]
24 | CC(C)[C@H](NC(N)=O)C(=O)Nc1ccc(Oc2ccccc2)cc1 | 48.8% | 6510 nM [falling, single point] | 1840 nM [rising, partial curve]
25 | O=c1cc(-c2ccncc2)oc2ccccc12 | 20.6% | – | 4.61 nM [rising, full curve, poor fit]
26 | O=C(NC1CCCc2ccccc21)C1CCC(CNS(=O)(=O)c2cccc3nsnc23)CC1 (centres undefined) | -13.3% | 1640 nM [rising, full curve] | –
27 | Cc1nnc(NC(=O)CSCc2cc(=O)c3ccccc3[nH]2)s1 | 18.8% | 25900 nM [rising, single point] | –
28 | Cc1ccc(NS(=O)(=O)c2ccc3oc(=O)ccc3c2)cc1Cl | -2.03% | 16400 nM [falling, single point] | –
29 | CN1CCN(S(=O)(=O)c2ccc3ccccc3c2)CC1 | -0.132% | 259 nM [falling, full curve] | –
30 | Cc1nn(-c2ccccc2)c2nc(Cl)c(C(=O)O)cc12 | – | 1030 nM [rising, full curve] | 920 nM [rising, full curve]
31 | CCOC(=O)c1c(N2C(=O)C3C4C=CC(O4)C3C2=O)sc2c1CCCC2 (centres undefined) | -2.92% | – | 164 nM [falling, full curve, poor fit]
32 | COc1ccc(-n2cnc3cc(NCc4ccco4)ccc32)cc1 | – | 2310 nM [rising, partial curve] | 461 nM [rising, partial curve, poor fit]
33 | COCCOc1cc(N)c(Cl)cc1Cl | 33% | 184 nM [rising, full curve] | 146 nM [rising, full curve, poor fit]
34 | CNC(=O)c1ccc(NC(=O)CC2SC(N3CCCC3)=NC2=O)cc1 (centres undefined) | -40.5% | 2910 nM [rising, full curve] | 25900 nM [falling, single point]
35 | CNCc1c(OCc2ccc(F)cc2)ccc2ccccc12 | – | 29.1 nM [falling, full curve, poor fit] | –
36 | COc1ccc(Cl)cc1NC(=O)C1CCN(C(=O)C2CC(=O)N(c3ccc(C)cc3)C2)CC1 (centres undefined) | 6.25% | 326 nM [rising, partial curve, poor fit] | –
37 | COc1cc(CCN2C(=O)N[C@@H](c3cccc(C(F)(F)F)c3)C(C(C)=O)=C2C)cc(OC)c1OC | -13% | 1840 nM [rising, partial curve, poor fit] | –
38 | CCN(CC)Cc1ccccc1Sc1ccccc1 | -26.2% | 5800 nM [falling, full curve] | –
39 | CCCCOC(=O)CSC(=S)N(C)Cc1cccs1 | -34.3% | 2310 nM [falling, partial curve] | 2590 nM [falling, full curve, poor fit]
40 | Cc1cc(NC(=O)Cc2ccccc2)no1 | -2.13% | – | –

Row | SMILES | cell number change | AC50 [1] | AC50 [2]
41 | CCOc1cc(C2C3=C(CCCC3=O)NC3=C2C(=O)CCC3)cc(Cl)c1O | -17.3% | 3260 nM [falling, single point] | –
42 | COc1ccc(-c2nnc(SCc3ccccc3F)o2)cc1OC | -31.5% | – | 14600 nM [falling, partial curve]
43 | C=C(C)CSc1nnc(-c2ccc(C)cc2)n1N | 10.1% | 411 nM [rising, partial curve, poor fit] | –
44 | CCN1CCN(C(=O)C2CCC(CNS(=O)(=O)c3ccc(NC(C)=O)cc3)CC2)CC1 (centres undefined) | 3.42% | 146 nM [rising, single point] | –
45 | CC(OC(=O)CN(C)S(=O)(=O)c1ccc(Cl)cc1)C(=O)Nc1cccc(Cl)c1 (centres undefined) | 9.64% | 731 nM [falling, full curve] | –
46 | Cc1cc(C)cc(OCC(=O)OCC(=O)Nc2cc(S(=O)(=O)N3CCOCC3)ccc2C)c1 | -12.7% | – | –
47 | C=CCN1C(=O)CN=C1Nc1ccccc1 | -7.2% | 6510 nM [rising, single point] | –
48 | CN(C)CCCN(C(=O)c1ccc(S(=O)(=O)N2CCCCCC2)cc1)c1nc2ccc(Br)cc2s1 | 14.7% | 29100 nM [rising, single point] | 1840 nM [rising, partial curve]
49 | CC(C)c1ccc(NC(=O)CSc2nc3ccsc3c(=O)n2Cc2ccc(C(=O)O)cc2)cc1 | -21.9% | – | –
50 | COCCCN(C(=O)CCOc1ccc(C)cc1)c1c(N)n(Cc2ccccc2)c(=O)[nH]c1=O | – | – | 2310 nM [rising, partial curve, poor fit]
51 | COc1ccc(C(CNC(=O)c2cccc(S(=O)(=O)Nc3ccccc3OC)c2)N2CCOCC2)cc1 (centres undefined) | -13.4% | 2310 nM [falling, partial curve, poor fit] | 2590 nM [falling, partial curve, poor fit]
52 | O=C(Nc1cc([N+](=O)[O-])ccc1C(=O)NCCN1CCOCC1)c1ccccc1 | 7.92% | 3660 nM [rising, single point] | –
53 | Cc1cccc(C(=O)N[C@H](C(=O)NCCc2ccc(Cl)cc2)C(C)C)c1 | 12.1% | 146 nM [rising, full curve, poor fit] | –
54 | O=C(O)c1ccccc1C(=O)NNc1cccc(Cl)n1 | -1.41% | 5.17 nM [falling, full curve, poor fit] | –
55 | CCOC(=O)c1sc2nc(CC(=O)OC)nc(NCCN3CCOCC3)c2c1C | – | 5800 nM [rising, partial curve] | 4110 nM [rising, partial curve, poor fit]
56 | CN(C)Cc1ccc(F)cc1Sc1cc(Cl)ccc1Cl | -56.3% | 29100 nM [falling, single point] | 23100 nM [falling, single point]
57 | CCOC(=O)NC1(C(F)(F)F)C(=O)N(Cc2ccccn2)C2=C1C(=O)CC(C)(C)C2 (centres undefined) | -30.6% | 6510 nM [falling, partial curve] | 3.66 nM [falling, full curve, poor fit]
58 | CCCCCN(C(=O)CCC(=O)OCC(=O)c1ccc(C(C)CC)cc1)c1c(N)n(CCCC)c(=O)[nH]c1=O (centres undefined) | – | – | 4.61 nM [rising, full curve, poor fit]
59 | CCOc1ccc(C2c3cc(OC)c(OC)cc3CC(=O)N2c2ccccc2)cc1 (centres undefined) | -17.2% | 5.17 nM [falling, full curve, poor fit] | 164 nM [falling, full curve, poor fit]
